According to PMC11136664:
No constants are given. Whether binding was seen depends on the method and setting. For part of these data: Binding can be weak; no strength is given. For part of these data: Tags and fused reporters may be left off the sequences shown. For part of these data: In cells and extracts the contact can be indirect.

Sequences of proteins named here, by UniProt entry; tags and fusion partners are left off.
UniProt Q9LNJ5: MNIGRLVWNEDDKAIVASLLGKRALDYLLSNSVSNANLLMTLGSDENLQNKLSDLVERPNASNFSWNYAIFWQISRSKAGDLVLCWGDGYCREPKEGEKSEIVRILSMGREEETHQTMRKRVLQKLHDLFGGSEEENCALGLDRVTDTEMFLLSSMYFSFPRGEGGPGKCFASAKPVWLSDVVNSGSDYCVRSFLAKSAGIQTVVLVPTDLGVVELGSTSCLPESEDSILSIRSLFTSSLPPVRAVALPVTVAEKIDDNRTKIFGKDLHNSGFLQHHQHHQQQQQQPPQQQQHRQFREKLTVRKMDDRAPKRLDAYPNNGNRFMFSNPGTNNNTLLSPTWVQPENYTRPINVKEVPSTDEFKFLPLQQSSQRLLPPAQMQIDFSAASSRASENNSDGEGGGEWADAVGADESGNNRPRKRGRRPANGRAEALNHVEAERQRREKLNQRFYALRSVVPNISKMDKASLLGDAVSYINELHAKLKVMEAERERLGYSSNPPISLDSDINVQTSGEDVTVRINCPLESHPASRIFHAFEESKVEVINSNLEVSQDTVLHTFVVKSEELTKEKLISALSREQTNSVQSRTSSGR

Experiments:
[1] = molecular target: T1, mCherry-tagged TPL expressed in Nicotiana benthamiana (A. thaliana) (UniProt Q94AI7); test: FRET or BRET; FRET–FLIM in nuclei of N. benthamiana epidermal cells; leaves 2 days at 20 °C, then exposed to 37 °C for 2 h; GFP–TWA1 donor, mCherry fusion acceptor
T1 sequence: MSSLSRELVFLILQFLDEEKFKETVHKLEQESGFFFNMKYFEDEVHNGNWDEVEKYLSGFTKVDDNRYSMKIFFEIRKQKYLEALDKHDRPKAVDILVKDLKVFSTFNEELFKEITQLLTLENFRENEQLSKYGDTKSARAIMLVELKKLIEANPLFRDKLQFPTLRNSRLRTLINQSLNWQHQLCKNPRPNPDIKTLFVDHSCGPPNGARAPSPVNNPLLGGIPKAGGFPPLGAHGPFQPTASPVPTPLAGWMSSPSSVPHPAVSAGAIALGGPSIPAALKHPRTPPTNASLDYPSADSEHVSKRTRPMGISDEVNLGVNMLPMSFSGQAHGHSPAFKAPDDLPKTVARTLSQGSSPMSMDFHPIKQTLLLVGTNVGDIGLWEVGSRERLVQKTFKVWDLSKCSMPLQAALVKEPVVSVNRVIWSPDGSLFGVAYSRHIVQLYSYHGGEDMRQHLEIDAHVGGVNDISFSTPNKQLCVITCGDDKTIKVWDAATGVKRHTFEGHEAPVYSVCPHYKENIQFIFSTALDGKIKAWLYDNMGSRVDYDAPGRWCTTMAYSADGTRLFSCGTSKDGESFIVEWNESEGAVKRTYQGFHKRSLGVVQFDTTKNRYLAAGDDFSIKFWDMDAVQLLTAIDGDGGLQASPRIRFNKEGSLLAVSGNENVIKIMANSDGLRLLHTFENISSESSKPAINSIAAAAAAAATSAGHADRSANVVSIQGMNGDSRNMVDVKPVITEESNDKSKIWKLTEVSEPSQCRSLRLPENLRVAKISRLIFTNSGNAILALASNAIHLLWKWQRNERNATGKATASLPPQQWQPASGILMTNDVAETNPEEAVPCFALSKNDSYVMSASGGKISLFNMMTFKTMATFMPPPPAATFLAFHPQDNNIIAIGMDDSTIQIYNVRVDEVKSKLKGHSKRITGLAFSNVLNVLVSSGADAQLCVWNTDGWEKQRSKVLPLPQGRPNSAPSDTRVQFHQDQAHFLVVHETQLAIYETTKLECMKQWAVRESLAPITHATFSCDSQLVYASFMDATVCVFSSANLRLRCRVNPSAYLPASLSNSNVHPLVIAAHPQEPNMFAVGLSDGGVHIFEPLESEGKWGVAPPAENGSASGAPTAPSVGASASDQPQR

[2] = molecular target: T1, mCherry-tagged TPL expressed in Nicotiana benthamiana (A. thaliana); test: FRET or BRET; FRET–FLIM in nuclei of N. benthamiana epidermal cells; leaves kept at 20 °C; GFP–TWA1 donor, mCherry fusion acceptor
[3] = molecular target: JASMONATE-ASSOCIATED MYC-LIKE 2 (JAM2), GAL4-DNA binding domain fusion (A. thaliana) (UniProt Q9LNJ5); test: two-hybrid; TWA1 fused to GAL4-AD against GAL4-BD fusions; serial tenfold culture dilutions on medium without leucine and tryptophan, with or without histidine, at 30 °C; JAM2 first found in a screen of indexed open-reading-frame libraries
[4] = molecular target: T2, TOPLESS (TPL), GAL4-DNA binding domain fusion (A. thaliana) (UniProt Q94AI7); test: as above
T2 sequence: T1 sequence

[5] = molecular target: JASMONATE-ASSOCIATED MYC-LIKE 2 (JAM2), GAL4-DNA binding domain fusion (A. thaliana) (UniProt Q9LNJ5); test: two-hybrid; growth assay in liquid culture for histidine autotrophy (-L,-W,-H), JAM2 fused to Gal4-BD, partners fused to Gal4-AD; growth rate µ over the first 24 h; at 25 °C and above (30 °C)
[6] = molecular target: JASMONATE-ASSOCIATED MYC-LIKE 2 (JAM2), GAL4-DNA binding domain fusion (A. thaliana) (UniProt Q9LNJ5); test: two-hybrid; growth assay in liquid culture for histidine autotrophy (-L,-W,-H), JAM2 fused to Gal4-BD, partners fused to Gal4-AD; growth rate µ over the first 24 h; at 20 °C

binding [1] | binding [2] | binding [3] | binding [4] | binding [5] | binding [6] | Substance
binds | no binding (only at 20 °C) |  |  |  |  | GFP–TWA1 expressed in Nicotiana benthamiana (A. thaliana)
 |  | binds | binds | binds | no binding (only at 20 °C) | THERMO-WITH ABA-RESPONSE 1 (TWA1), GAL4-activation domain fusion (from UniProt F4K402)
